# Laboratory results reported in US20250108100A1, “C-TERMINAL FRAGMENT OF APOLIPOPROTEIN E AND APPLICATION THEREOF IN INHIBITING y-SECRETASE ACTIVITY” (SYNPHATEC (SHANGHAI) BIOPHARMACEUTICAL TECHNOLOGY CO., LTD., priority 2022, published 2025).
# “Also recorded” adds a separate entry of the source.
# How the values were obtained:
# [1] = system: HEK 293T cells; assay: Immunofluorescence of ApoE from culture medium in HEK 293T cells; assay type: cell-based, human; details: immunofluorescence after co-incubation
# [2] = system: primary cultured neurons; assay: Immunofluorescence of ApoE from culture medium in primary cultured neurons; assay type: cell-based, mouse; details: immunofluorescence after co-incubation
substance,measurement,setting,value
"ApoE2: human apolipoprotein E2, full-length 299 amino acid residues, SEQ ID NO: 12",protein from culture medium detected inside cells,[1],mainly adhered to the cell surface and hardly entered the cell; also recorded: largely could not be detected inside the cells; also recorded: mainly detected outside the cell membrane
same,protein from culture medium detected inside neurons,[2],mainly adhered to the cell surface and hardly entered the cell; also recorded: largely could not be detected inside the primary cultured neurons; also recorded: mainly detected outside the cell membrane
